Results: US20250242017A1, “HISTAMINE AND HRH1 SIGNALING ACTIVITY AS BIOMARKERS AND ASSOCIATED METHODS” (Board of Regents, The University of Texas System, priority 2022, published 2025)

What was measured:
EMT6 tumors = assay: EMT6 tumor model with or without OVA-induced allergic airway disease; format: in vivo, mouse; settings: allergic mice
From the text: (§1) Tumor inductions and treatment experiments.
(§2) Isolation of tumor-infiltrating cells.
(§3) Flow cytometry staining and analysis.

CT26 tumors = assay: CT26 tumor model with or without OVA-induced allergic airway disease; format: in vivo, mouse; settings: allergic mice
From the text: as §1, §2, §3

EO771 tumors = tested on: EO771 tumors
From the text: as §1, §2, §3

[1] = tested on: bone marrow-derived macrophages (BMDMs); settings: FEXO treatment of HRH1-/- macrophages vs vehicle-treated HRH1-/- macrophages
B16-GM tumors = assay: B16-GM melanoma model; settings: FEXO-treated vs vehicle-treated WT mice; 30 mg/kg oral gavage once per day

## CC(C)(C(=O)O)c1ccc(C(O)CCCN2CCC(C(O)(c3ccccc3)c3ccccc3)CC2)cc1 (stereo not shown) [FEXO, fexofenadine]
EMT6 tumors
  allergy-induced increased VISTA on TAMs, decreased MHCII:CD206 ratio, reduced IFN-g+ CD8+ T cells: partially reversed
CT26 tumors
  allergy-induced increased VISTA on TAMs, decreased MHCII:CD206 ratio, reduced IFN-g+ CD8+ T cells: partially reversed
EO771 tumors; FEXO-treated vs vehicle-treated EO771 tumors
  angiogenesis (CD31+ blood vessel density): did not show a significant impact on angiogenesis
EO771 tumors; FEXO-treated vs vehicle-treated WT mice, 30 mg/kg oral gavage once per day
  MHCII:CD206 ratio in the TAMs: Enhanced
EO771 tumors; PD-L1-/- mice treated with FEXO
  mice remaining tumor free: 50%
[1]
  MHCII:CD206 ratio: did not increase the MHCII:CD206 ratio
B16-GM tumors
  MHCII:CD206 ratio in the TAMs: Enhanced
